PubChem BioAssay AID1159578, Peter MacCallum Cancer Centre, 2015

Test: 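siRNA pools altering how lymphatic endothelial cells close a scratch wound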 (primary screen)
System: human lymphatic endothelial cells
Knock-down reagent: siRNA pool against human genes, 40 nM
Timing: 48 h after transfection
Detection: 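High-content imaging of dye-stained cells in a scratch assay measures filled wound area and nuclei per well; duplicate means given as ratio to mock and robust z-score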
Reading the numbers: migration robust z-score: higher = faster migration into the scratch; nuclei per well: higher = more cells in the well
Hit rule: 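Migration changed when robust z exceeds 2 or falls below -2 and mean nuclei number is at least 3300; otherwise not called changed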
Meaning of the calls: active = migration changed; inactive = no migration change, or too few cells
This is a random part of about 18,000 deposited reagents. In the full data, about 1,030 (5.7%) were called active. 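Inactive calls also include pools with fewer than 3300 nuclei, whose migration was not assessed.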 Raw values vary from plate to plate and are shown uncorrected. A number with no mark means an inactive call. Further read-outs or replicates are left out here. No sequences are given here.

ARL4C: migration robust z-score = 0.17; migration class with cell-count check = migration z between -2 and 2; enough cells; nuclei per well, duplicate mean = 5020
NBEA: migration robust z-score = -0.71; migration class with cell-count check = migration z between -2 and 2; enough cells; nuclei per well, duplicate mean = 6136
E2F7: migration robust z-score = -0.09; migration class with cell-count check = migration z between -2 and 2; enough cells; nuclei per well, duplicate mean = 5106
PTRH2: migration robust z-score = 0.71; migration class with cell-count check = migration z between -2 and 2; enough cells; nuclei per well, duplicate mean = 6467
NBPF8: migration robust z-score = 0.56; migration class with cell-count check = migration z between -2 and 2; enough cells; nuclei per well, duplicate mean = 5333
B3GALT1: migration robust z-score = 0.34; migration class with cell-count check = migration z between -2 and 2; enough cells; nuclei per well, duplicate mean = 5672
KLHL26: migration robust z-score = -0.16; migration class with cell-count check = migration z between -2 and 2; enough cells; nuclei per well, duplicate mean = 5796
GALNT7: migration robust z-score = -1.01; migration class with cell-count check = migration z between -2 and 2; enough cells; nuclei per well, duplicate mean = 5558
TLL1: migration robust z-score = 0.72; migration class with cell-count check = migration z between -2 and 2; enough cells; nuclei per well, duplicate mean = 4037
PTCD3: migration robust z-score = 2.29 (active); migration class with cell-count check = migration z above 2; enough cells; nuclei per well, duplicate mean = 6770
S100A14: migration robust z-score = 0.58; migration class with cell-count check = migration z between -2 and 2; enough cells; nuclei per well, duplicate mean = 5499
GLI2: migration robust z-score = 0.1; migration class with cell-count check = migration z between -2 and 2; enough cells; nuclei per well, duplicate mean = 6394
MID1: migration robust z-score = 0.55; migration class with cell-count check = migration z between -2 and 2; enough cells; nuclei per well, duplicate mean = 4874
OR4C15: migration robust z-score = -1.64; migration class with cell-count check = migration z between -2 and 2; enough cells; nuclei per well, duplicate mean = 4911
TRMT61A: migration robust z-score = -0.7; migration class with cell-count check = migration z between -2 and 2; enough cells; nuclei per well, duplicate mean = 5722
SLC39A5: migration robust z-score = 0.85; migration class with cell-count check = migration z between -2 and 2; enough cells; nuclei per well, duplicate mean = 4716
PARP8: migration robust z-score = -0.68; migration class with cell-count check = migration z between -2 and 2; enough cells; nuclei per well, duplicate mean = 6337
OR8U1: migration robust z-score = 0.16; migration class with cell-count check = migration z between -2 and 2; enough cells; nuclei per well, duplicate mean = 5490
ECE2: migration robust z-score = 0.32; migration class with cell-count check = migration z between -2 and 2; enough cells; nuclei per well, duplicate mean = 5892
STON1-GTF2A1L: migration robust z-score = 1.48; migration class with cell-count check = migration z between -2 and 2; enough cells; nuclei per well, duplicate mean = 5332
PDE7A: migration robust z-score = 0.91; migration class with cell-count check = migration z between -2 and 2; enough cells; nuclei per well, duplicate mean = 3669

Reformatted: 2 of the entries above.
gene	migration robust z-score	migration class with cell-count check	nuclei per well, duplicate mean
ECE2	0.32	migration z between -2 and 2; enough cells	5892
STON1-GTF2A1L	1.48	migration z between -2 and 2; enough cells	5332
